# According to PubChem BioAssay AID493014 (National Center for Advancing Translational Sciences (NCATS), 2011):
# This is one part of the list. The main result of the screen is listed elsewhere. These columns were measured beside it and carry no call. The list favours compounds with an active or inconclusive main result. Words in brackets tell the shape of the fitted curve; partial curves, single points and poor fits give uncertain potencies.
# Assay: qHTS Assay to Find Inhibitors of Chronic Active B-Cell Receptor Signaling
# Details: ABC-DLBCL IkBa-CBG/CBR reporter, luminescence ratio (green luciferase fused to IkBa over red control in TMD8 lymphoma cells), 4 h
# Procedure, shortened: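 TMD8 human ABC-DLBCL cells with doxycycline-inducible IκBα–green luciferase fusion and unfused red luciferase, in 0.5% FBS medium; compounds up to 46 uM, 4 h at 37C. Green/red luminescence ratio, filter-overlap corrected, fitted to concentration-response curves.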
# [1] = measured here: CBR red luminescence, cell number
# [2] = measured here: IkBa-CBG green luminescence
Compound,AC50 [1],AC50 [2]
O=C1C2C(c3cccc(/C=C/c4ccccc4)c3)CC=CC2C(c2ccc3ccccc3c2)N1Cc1ccccc1 (centres undefined),"17.8 µM [rising, single point]",
O=C(NCCO)c1nc2ccccc2s1,"5.17 µM [falling, partial curve]",
CC(C)Cn1c(N)c(C(=O)COC(=O)c2cc(C3CC3)nc3ccccc23)c(=O)n(C)c1=O,"29.1 µM [falling, single point]",
CCOC(=O)c1c(NC(C)=O)sc(/C(C)=N/Nc2ccc(C(=O)O)cc2)c1C,"0.251 µM [falling, full curve]",
CCOC(=O)c1c(NC(=O)c2cccnc2Cl)sc(C(=O)N(C)C)c1C,,"20.6 µM [falling, single point]"
NC(=O)c1cc2ccccc2o/c1=N/NC(=O)c1cccs1,"35.5 µM [falling, single point]",
Cc1[nH]nc2cn[nH]c12,"7.08 µM [falling, full curve, poor fit]",
Cn1cccc1CC(=O)NNC(=S)Nc1ccc(Cl)cc1Cl,"9.2 µM [rising, partial curve]",
O=C1C(=O)N(CCN2CCOCC2)C(c2ccccn2)/C1=C(/O)c1ccc(Cl)cc1 (centres undefined),"0.00461 µM [falling, full curve, poor fit]",
O=C(Cc1ccccc1)NCc1ccc(F)cc1,"0.366 µM [rising, partial curve]",
CN(C)C(CNC(=O)c1cc(S(=O)(=O)N(C)c2ccccc2)ccc1Cl)c1ccccc1 (centres undefined),"22.4 µM [falling, single point]","15.8 µM [rising, partial curve, poor fit]"
COc1ccc(CCN(Cc2cc3cccc(C)c3[nH]c2=O)C(=O)N2CCCC2)cc1OC,"6.51 µM [rising, single point]",
O=c1ccccn1Cc1c(F)cccc1Cl,"0.00517 µM [rising, full curve, poor fit]",
COc1ccc(C(=O)NNC(=S)NC(=O)c2ccc(OC)cc2)cc1,"35.5 µM [rising, single point]",
O=[N+]([O-])c1ccccc1-c1cc(-c2ccccc2O)n[nH]1,"0.092 µM [falling, full curve]",
COc1ccc(NC(=O)CSCC(=O)N(C)Cc2cccc(OC)c2OC)cc1,"9.2 µM [rising, partial curve, poor fit]",
CN(Cc1ccccc1)C(=O)c1nc2ccccn2c1CNCCn1cccn1,"0.631 µM [falling, single point]",
O=C(Cn1ccc(C(F)(F)F)n1)N=Nc1c(O)[nH]c2ccc(Br)cc12,"8.91 µM [falling, partial curve]",
COc1ccc(C2C(C#N)=C(/N=C/N3CCN(C)CC3)OC3=C2C(=O)CC(C)(C)C3)cc1OC (centres undefined),"4.61 µM [rising, single point]",
CC(C)c1ccc(OCC(=O)NCc2ccco2)cc1,"13 µM [rising, partial curve, poor fit]",
CC[C@]12c3[nH]c4ccc(OC)cc4c3CCN1C(=O)C(CC(=O)NC/C=C(\C)CCC=C(C)C)C[C@@H]2C(=O)N1CCN(C(=O)c2ccco2)CC1 (some centres undefined),"23.1 µM [falling, single point]",

# 2 entries from above, tab-delimited:
Compound	AC50 [1]	AC50 [2]
CCOC(=O)c1c(NC(=O)c2cccnc2Cl)sc(C(=O)N(C)C)c1C		20.6 µM [falling, single point]
NC(=O)c1cc2ccccc2o/c1=N/NC(=O)c1cccs1	35.5 µM [falling, single point]	

# Next results follow.

Compound,AC50 [1],AC50 [2]
COc1ccccc1-c1cc(C(=O)NN)[nH]n1,"11.2 µM [falling, partial curve, poor fit]","28.2 µM [falling, single point]"
Cc1ccccc1NC(=O)/C=C/c1cccs1,"35.5 µM [falling, single point]",
COC(=O)c1ccc(Oc2cc(C)nc(SC)n2)cc1,"20 µM [rising, partial curve]","22.4 µM [falling, single point]"
COc1cc(C(=O)NNC(=S)NC(=O)c2ccc3c(c2)OCO3)cc(OC)c1OC,"35.5 µM [rising, single point]","28.2 µM [falling, single point]"
CCCCC(CC)COC(=O)c1ccc(N(C)C)cc1 (centres undefined),"14.6 µM [rising, partial curve]",
CCCCn1c(CN2CCOCC2)nc2c1c(=O)n(C)c(=O)n2C,"23.1 µM [falling, single point]",
Nc1ncnc2c1ncn2[C@@H]1O[C@H](CNC(=O)[C@@H](N)COCc2ccccc2)[C@@H](O)[C@H]1O,"29.1 µM [rising, single point]","8.2 µM [falling, partial curve, poor fit]"
CN(C)CCNC(=O)c1ccc(-c2nn(C)c(=O)c3ccccc23)cc1,"9.2 µM [rising, partial curve, poor fit]",
CCOC(=O)CN1C(=O)C(=O)N(Cc2c(Cl)cccc2Cl)C1=O,"35.5 µM [rising, single point]",
CCOC(=O)c1cn2nc(N3CCCC3)ccc2n1,"15.8 µM [falling, partial curve]",
O=C(Nc1ccc2c(c1)OCCO2)c1ccc(Br)cc1,"10 µM [falling, partial curve, poor fit]",
COC(=O)N1C(=O)[C@](c2ccsc2)(C(C)C)N1C(=O)OC,"3.16 µM [falling, partial curve]",
Cc1cc(Br)ccc1OCCN1CC(C)OC(C)C1 (centres undefined),"35.5 µM [rising, single point]",
CCCn1c(NC(=O)c2cccc(S(=O)(=O)N3CCCC3)c2)nc2ccccc21,"7.08 µM [falling, partial curve]",
Brc1ccc2nc(-c3cccs3)c(NCC3CCCO3)n2c1 (centres undefined),"10 µM [falling, partial curve, poor fit]","14.1 µM [rising, partial curve, poor fit]"
COc1ccccc1N1C(=O)N(CC(=O)C(C)(C)C)c2ccccc2S1(=O)=O,"31.6 µM [falling, single point]",
COc1cc(C(=O)N2CCN(S(=O)(=O)c3ccc(F)cc3)CC2)cc(OC)c1OC,"0.651 µM [rising, full curve, poor fit]",
CC(=O)Nc1ccc(NC(=O)[C@@H](NC(=O)c2ccccc2F)C(C)C)cc1,"14.1 µM [falling, partial curve, poor fit]",
CC(=O)Nc1cc(-c2nn(C)c(=O)c3ccccc23)ccc1N1CCOCC1,"29.1 µM [rising, single point]",
NC(=O)[C@H]1CC2(CC(c3cccc(NC(=O)COc4ccc(Cl)cc4)c3)=NO2)CN1C(=O)CC(c1ccccc1)c1ccccc1 (some centres undefined),"6.31 µM [falling, full curve, poor fit]",
CC(/C=C/c1ccccc1F)=N\NC(=O)c1ccccc1,"12.6 µM [falling, partial curve]",

Compound,AC50 [1],AC50 [2]
CC(C)CN(C(=O)COC(=O)c1nc(Cl)ccc1Cl)C1CCS(=O)(=O)C1 (centres undefined),"11.2 µM [falling, single point]",
CCN(CC)C(=S)SCC(=O)c1ccc(F)cc1,,"35.5 µM [falling, single point]"
CCOC(=O)c1c(N=CN(C)C)c2cc([N+](=O)[O-])cnc2n1C,"0.112 µM [falling, full curve, poor fit]",
CC(=O)Nc1cccc(Oc2ccc(-c3noc(C)n3)cc2)c1,"6.51 µM [rising, single point]",
COc1ccc(S(=O)(=O)N(C)CC(=O)Nc2ccc3c(c2)OCO3)cc1OC,"6.51 µM [falling, single point]",
Cc1cccc(N2CCN(C(=O)C3CCN(c4ncnc5c4nc4n5CCCCC4)CC3)CC2C)c1 (centres undefined),"4.47 µM [falling, full curve]",
CS(=O)(=O)N(CC(=O)N1CCN(c2ccccc2F)CC1)c1cc(C(F)(F)F)ccc1Cl,"6.51 µM [falling, partial curve, poor fit]",
Cc1sc(NC(=O)c2ccc3ncsc3c2)c(C(N)=O)c1C,"0.13 µM [rising, full curve, poor fit]",
NS(=O)(=O)c1ccc(CCNCc2cc(Br)ccc2OCc2ccccc2F)cc1,"20 µM [falling, single point]",
Cc1ccc(C)c(N2CCN(C(=O)C3CCCN(c4ncnc5c4nc4n5CCCCC4)C3)CC2)c1 (centres undefined),"15.8 µM [falling, single point]",
COc1cc(C2C(N3C(=O)c4ccccc4C3=O)C(=O)N2c2ccc(C)c(C)c2)cc(OC)c1OC (centres undefined),"5.17 µM [rising, full curve, poor fit]","9.2 µM [falling, partial curve, poor fit]"
CCCn1cnc2c(oc3ccccc32)c1=O,"1.41 µM [rising, full curve, poor fit]",
COc1ccc(C2CC(=O)c3cc(OC)c(OC)cc32)cc1OC (centres undefined),"35.5 µM [rising, single point]","10 µM [falling, partial curve, poor fit]"
CCOc1ccc(NC(=O)CSc2nnc(C)n2CC2CCCO2)cc1 (centres undefined),"20.6 µM [falling, single point]",
Cc1c(C(=O)NCCc2ccccc2)oc2ccccc12,"12.6 µM [falling, partial curve, poor fit]",
C=CCNc1nnc(Cl)c2ccccc12,"29.1 µM [rising, single point]",
CCCc1nc(SCC(=O)N2CCCC2)c2ccccc2n1,"25.1 µM [falling, single point]",
C=CCOc1ccc(/C(CC)=N/O)cc1OC,"0.411 µM [rising, partial curve, poor fit]",
CCOc1cc(C2C3=C(CCCC3=O)NC3=C2C(=O)CCC3)ccc1OCCO,"4.61 µM [rising, single point]",

# Three records drawn at random from the list so far, as already listed:
Compound,AC50 [1],AC50 [2]
O=C(Cn1ccc(C(F)(F)F)n1)N=Nc1c(O)[nH]c2ccc(Br)cc12,"8.91 µM [falling, partial curve]",
CN(C)CCNC(=O)c1ccc(-c2nn(C)c(=O)c3ccccc23)cc1,"9.2 µM [rising, partial curve, poor fit]",
CCN(CC)C(=S)SCC(=O)c1ccc(F)cc1,,"35.5 µM [falling, single point]"
